Literature values as cited in patent publication US8119168B2, “Personal care compositions comprising a zinc containing material in an aqueous surfactant composition” (The Procter & Gamble Company, priority 2002, dated 2012).
At least one structure is not confirmed: it was looked up by name or label, or the drawing left a doubt.

Conditions: cited from earlier work

Row | Structure (SMILES) | Log Zn Binding Constant
1 | O=C(O)CNCCNCC(=O)O [EDDA] | 11.1
2 | O=C(O)C(O)C(=O)O [Tatronic Acid] | 3.2
